These are yes or no findings as the source states them, for the method shown. Some binding calls cover weakened binding; strength is not graded here.

Chains of the proteins cited; added tags and fusions are not shown. Residues count along the entry.
UniProt P61823, residues 27-150: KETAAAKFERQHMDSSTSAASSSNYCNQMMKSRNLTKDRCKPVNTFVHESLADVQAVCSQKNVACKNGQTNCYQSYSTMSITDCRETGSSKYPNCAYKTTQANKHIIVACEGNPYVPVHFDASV

From patent publication US9999664B2, “HIV-1 gp120 mini V3 loop and uses thereof” (The Scripps Research Institute, priority 2011, dated 2018) come the findings set out here.

The target of the test is RNAse B (UniProt P61823). As to the kind of experiment: ELISA on coated RNAse B, HRP-conjugated lectin, absorbance at 450 nm. For orientation: ELISA stands for enzyme-linked immunosorbent assay.

B1: GNL (450nm) (protein)
chain: DNILYSGETLSTGEFLNYGSFVFIMQEDCNLVLYDVDKPIWATNTGGLSRSCFLSMQTDGNLVVYNPSNKPIWASNTGGQNGNYVCILQKDRNVVIYGTDRWATG
For the molecule B1, the binding result is reported as “binds”.
